# Measurements reported in PubChem BioAssay AID1259308 (NCATS, 2017).
# Aim: 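Knock-downs that increase output of a recombinant reporter protein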 (primary screen)
# Cells: human HEK293 embryonic kidney cells stably expressing firefly luciferase (HEK-CMV-Luc2-Hygro)
# Reagent: single siRNA against human genes, 0.8 pmol siRNA per well
# Duration: 72 h
# Measurement: 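Reporter luminescence and viable-cell signal on separate replicate plates, given as percent of non-targeting control and median/MAD z-scores, plus per-cell luciferase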
# Direction: total luciferase, z-score and total luciferase, % of control: higher = more reporter protein produced; luciferase per cell, z-score: higher = more reporter output per viable cell; viable cells, % of control: higher = more viable cells
# Rule for the call: 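An siRNA counts as active if its total luciferase robust z-score exceeds 3; genes with two or more such siRNAs out of three were retested with fresh siRNAs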
# Calls: active = raised luciferase; inactive = no rise
# The whole screen tested about 59,000 reagents; this is a random part of them. In the full data, about 1,510 (2.6%) are marked active. 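Calls use total luciferase alone and ignore viability, so some active siRNAs may act by altering cell number.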 Reagents against one gene are numbered here.
target gene,siRNA no.,"total luciferase, z-score","total luciferase, % of control","luciferase per cell, z-score","viable cells, % of control",Call
AMPH,1,-0.65,69,-0.821,95.7,inactive
AMPH,2,0.496,91.8,0.457,90.9,inactive
AMPH,3,-0.673,68.5,-0.728,92.7,inactive
CFAP69,1,1.1,104,0.8,93.9,inactive
CFAP69,2,-0.334,75.2,0.352,76.7,inactive
CFAP69,3,-0.171,78.5,-0.797,108,inactive
KIAA1210,1,-0.467,72.6,-0.954,104,inactive
KIAA1210,2,-1.1,60.1,-0.554,77.6,inactive
KIAA1210,3,-0.955,62.9,-0.133,72.8,inactive
HIRA,1,-0.227,77.4,-0.475,98,inactive
HIRA,2,0.945,101,1.11,84,inactive
HIRA,3,-0.725,67.5,0.191,71.7,inactive
SYT8,1,1.27,107,1.79,74.7,inactive
SYT8,2,-0.948,63,-0.448,79.3,inactive
SYT8,3,2.04,123,2.5,71,inactive

A stretch from the list above:
target gene,siRNA no.,"total luciferase, z-score","total luciferase, % of control","luciferase per cell, z-score","viable cells, % of control",Call
HIRA,3,-0.725,67.5,0.191,71.7,inactive
SYT8,1,1.27,107,1.79,74.7,inactive

The results go on.
target gene,siRNA no.,"total luciferase, z-score","total luciferase, % of control","luciferase per cell, z-score","viable cells, % of control",Call
SEL1L2,1,-1.88,44.5,-1.99,83.8,inactive
SEL1L2,2,0.699,95.8,-0.0645,109,inactive
SEL1L2,3,0.434,90.5,0.677,84.6,inactive
GAB2,1,0.474,91.3,-0.121,105,inactive
GAB2,2,0.583,93.5,0.232,98.3,inactive
GAB2,3,-1.01,61.7,-0.687,82.6,inactive
ASIC2,1,-0.249,76.9,0.103,83.7,inactive
ASIC2,2,-0.555,70.9,-0.752,96.5,inactive
ASIC2,3,0.557,93,0.236,97.6,inactive
